The other results are listed elsewhere or left out.
Compound: CCN(CCCOc1ccc2c(Nc3cc(CC(=O)Nc4cccc(F)c4)[nH]n3)ncnc2c1)CCOP(=O)(O)O [barasertib]
Experiment: log2 fold change, soluble protein after heating vs DMSO (PISA); higher = thermal stabilisation; K562 cells, 10 uM, 30 min; active = over 0.2 and 3.5 SD of the protein, either way, in both replicates (recomputed)
Procedure, shortened: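 Soluble protein was defined as the supernatant after 21,000xg for 90 min. It came from K562 cells at 2×10^6 cells/mL given 10 μM compound for 30 min, heated in aliquots for 3 min across 48°C-58°C, pooled, and extracted in PBS with 0.5% NP-40 at 4°C, and was quantified by TMTpro 16plex LC-MS/MS with equalised channel sums. Thermal stability against control samples, from duplicates, is reported as log2 fold change.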

Protein sequences, listed by entry. Tags and fused reporters are not part of them. Lines headed by an entry give the natural chain unless they say otherwise; changes in a name come on top.
UniProt P30039: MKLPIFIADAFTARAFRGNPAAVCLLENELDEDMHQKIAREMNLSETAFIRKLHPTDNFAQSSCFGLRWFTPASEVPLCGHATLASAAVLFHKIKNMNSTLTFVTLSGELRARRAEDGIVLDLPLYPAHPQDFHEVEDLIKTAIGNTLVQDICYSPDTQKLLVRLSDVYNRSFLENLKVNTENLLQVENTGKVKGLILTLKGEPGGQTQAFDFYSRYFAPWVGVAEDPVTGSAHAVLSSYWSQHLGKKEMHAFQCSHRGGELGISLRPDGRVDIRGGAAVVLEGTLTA
UniProt Q15118, whole entry, looked up: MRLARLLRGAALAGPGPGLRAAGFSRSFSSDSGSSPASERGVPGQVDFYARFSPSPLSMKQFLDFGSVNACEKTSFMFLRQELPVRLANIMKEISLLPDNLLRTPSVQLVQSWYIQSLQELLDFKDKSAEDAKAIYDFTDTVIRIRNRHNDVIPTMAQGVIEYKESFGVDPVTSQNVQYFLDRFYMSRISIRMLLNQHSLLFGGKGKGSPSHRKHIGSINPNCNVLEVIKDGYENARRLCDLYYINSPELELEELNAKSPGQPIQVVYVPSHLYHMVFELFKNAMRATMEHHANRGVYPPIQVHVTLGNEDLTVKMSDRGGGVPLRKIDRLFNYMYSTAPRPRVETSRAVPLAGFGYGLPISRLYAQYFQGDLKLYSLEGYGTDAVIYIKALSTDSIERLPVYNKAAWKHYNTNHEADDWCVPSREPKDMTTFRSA
UniProt P30086: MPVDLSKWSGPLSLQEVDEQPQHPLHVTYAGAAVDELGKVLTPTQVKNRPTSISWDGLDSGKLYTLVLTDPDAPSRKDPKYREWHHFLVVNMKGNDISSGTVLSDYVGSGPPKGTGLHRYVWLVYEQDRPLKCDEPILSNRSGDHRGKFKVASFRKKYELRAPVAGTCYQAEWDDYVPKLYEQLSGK
UniProt Q6P996: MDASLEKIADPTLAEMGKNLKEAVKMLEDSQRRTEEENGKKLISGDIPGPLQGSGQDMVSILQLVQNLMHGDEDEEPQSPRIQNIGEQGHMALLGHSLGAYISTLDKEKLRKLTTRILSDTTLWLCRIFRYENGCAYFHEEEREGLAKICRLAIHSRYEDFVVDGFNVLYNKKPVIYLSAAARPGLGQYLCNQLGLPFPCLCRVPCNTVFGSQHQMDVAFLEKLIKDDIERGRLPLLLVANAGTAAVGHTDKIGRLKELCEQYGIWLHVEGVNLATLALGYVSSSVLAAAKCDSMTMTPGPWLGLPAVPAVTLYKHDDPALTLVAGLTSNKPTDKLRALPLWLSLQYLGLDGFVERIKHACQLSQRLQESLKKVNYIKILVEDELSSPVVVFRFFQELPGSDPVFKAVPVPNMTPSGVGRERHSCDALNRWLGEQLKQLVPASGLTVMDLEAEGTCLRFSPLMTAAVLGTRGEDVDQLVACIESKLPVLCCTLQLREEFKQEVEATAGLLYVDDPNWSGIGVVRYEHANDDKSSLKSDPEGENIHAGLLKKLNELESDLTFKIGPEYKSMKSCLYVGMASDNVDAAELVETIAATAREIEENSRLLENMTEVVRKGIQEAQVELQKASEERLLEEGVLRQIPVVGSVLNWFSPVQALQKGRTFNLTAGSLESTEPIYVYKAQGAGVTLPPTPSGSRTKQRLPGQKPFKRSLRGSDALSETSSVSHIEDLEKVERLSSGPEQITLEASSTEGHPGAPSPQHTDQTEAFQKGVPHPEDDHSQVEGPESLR
UniProt P11498: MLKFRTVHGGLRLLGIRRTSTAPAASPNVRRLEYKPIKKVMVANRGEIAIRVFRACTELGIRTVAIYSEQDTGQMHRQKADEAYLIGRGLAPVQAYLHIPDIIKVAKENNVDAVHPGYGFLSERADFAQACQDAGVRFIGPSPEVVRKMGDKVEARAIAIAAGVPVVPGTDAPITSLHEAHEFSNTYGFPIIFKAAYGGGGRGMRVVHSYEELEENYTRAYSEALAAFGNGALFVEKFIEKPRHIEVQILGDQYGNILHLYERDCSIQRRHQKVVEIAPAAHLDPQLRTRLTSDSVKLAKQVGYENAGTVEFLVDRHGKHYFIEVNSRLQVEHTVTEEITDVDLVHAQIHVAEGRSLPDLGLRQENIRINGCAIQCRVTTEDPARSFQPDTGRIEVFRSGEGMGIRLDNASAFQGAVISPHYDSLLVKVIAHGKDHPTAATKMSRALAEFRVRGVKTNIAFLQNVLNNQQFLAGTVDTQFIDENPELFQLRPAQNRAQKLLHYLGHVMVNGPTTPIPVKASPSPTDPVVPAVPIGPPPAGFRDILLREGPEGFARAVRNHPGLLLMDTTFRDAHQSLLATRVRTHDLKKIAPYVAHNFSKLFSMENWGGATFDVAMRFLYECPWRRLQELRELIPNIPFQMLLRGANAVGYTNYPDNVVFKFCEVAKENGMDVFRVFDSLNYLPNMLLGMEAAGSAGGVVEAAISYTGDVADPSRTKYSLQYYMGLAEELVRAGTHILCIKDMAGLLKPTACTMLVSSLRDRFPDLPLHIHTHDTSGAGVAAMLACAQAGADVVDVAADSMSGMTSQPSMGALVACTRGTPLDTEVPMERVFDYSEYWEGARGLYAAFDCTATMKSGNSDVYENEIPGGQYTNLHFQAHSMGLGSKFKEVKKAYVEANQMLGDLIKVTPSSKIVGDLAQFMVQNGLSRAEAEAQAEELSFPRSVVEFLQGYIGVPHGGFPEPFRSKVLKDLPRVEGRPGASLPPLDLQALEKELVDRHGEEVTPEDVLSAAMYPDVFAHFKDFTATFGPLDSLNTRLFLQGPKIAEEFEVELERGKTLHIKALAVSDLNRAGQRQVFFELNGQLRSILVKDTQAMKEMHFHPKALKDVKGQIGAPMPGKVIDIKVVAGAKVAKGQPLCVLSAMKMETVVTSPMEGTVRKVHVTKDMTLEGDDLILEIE
UniProt Q15366, whole entry, looked up: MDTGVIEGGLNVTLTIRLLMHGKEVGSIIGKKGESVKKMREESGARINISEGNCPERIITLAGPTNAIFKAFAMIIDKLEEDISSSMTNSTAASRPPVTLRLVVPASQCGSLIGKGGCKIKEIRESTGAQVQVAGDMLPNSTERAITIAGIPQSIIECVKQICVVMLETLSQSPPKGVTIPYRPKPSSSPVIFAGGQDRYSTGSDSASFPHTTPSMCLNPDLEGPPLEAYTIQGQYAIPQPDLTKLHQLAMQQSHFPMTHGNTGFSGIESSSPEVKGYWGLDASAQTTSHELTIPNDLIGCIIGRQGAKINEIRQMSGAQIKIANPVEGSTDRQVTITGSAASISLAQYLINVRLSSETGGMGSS
UniProt O75914, whole entry, looked up: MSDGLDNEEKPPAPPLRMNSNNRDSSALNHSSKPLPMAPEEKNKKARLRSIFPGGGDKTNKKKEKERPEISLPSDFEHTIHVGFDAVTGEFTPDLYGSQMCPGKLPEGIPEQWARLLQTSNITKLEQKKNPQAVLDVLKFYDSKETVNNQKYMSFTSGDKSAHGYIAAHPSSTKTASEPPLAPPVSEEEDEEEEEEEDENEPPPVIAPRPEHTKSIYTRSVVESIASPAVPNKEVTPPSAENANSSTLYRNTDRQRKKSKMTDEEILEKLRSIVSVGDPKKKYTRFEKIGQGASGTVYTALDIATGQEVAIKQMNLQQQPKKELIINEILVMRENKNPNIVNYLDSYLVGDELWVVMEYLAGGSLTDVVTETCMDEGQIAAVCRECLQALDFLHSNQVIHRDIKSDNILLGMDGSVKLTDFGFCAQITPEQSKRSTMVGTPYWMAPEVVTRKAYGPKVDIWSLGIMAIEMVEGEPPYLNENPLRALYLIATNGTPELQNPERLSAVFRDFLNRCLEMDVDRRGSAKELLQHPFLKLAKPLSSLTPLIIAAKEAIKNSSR
UniProt Q8IZL8: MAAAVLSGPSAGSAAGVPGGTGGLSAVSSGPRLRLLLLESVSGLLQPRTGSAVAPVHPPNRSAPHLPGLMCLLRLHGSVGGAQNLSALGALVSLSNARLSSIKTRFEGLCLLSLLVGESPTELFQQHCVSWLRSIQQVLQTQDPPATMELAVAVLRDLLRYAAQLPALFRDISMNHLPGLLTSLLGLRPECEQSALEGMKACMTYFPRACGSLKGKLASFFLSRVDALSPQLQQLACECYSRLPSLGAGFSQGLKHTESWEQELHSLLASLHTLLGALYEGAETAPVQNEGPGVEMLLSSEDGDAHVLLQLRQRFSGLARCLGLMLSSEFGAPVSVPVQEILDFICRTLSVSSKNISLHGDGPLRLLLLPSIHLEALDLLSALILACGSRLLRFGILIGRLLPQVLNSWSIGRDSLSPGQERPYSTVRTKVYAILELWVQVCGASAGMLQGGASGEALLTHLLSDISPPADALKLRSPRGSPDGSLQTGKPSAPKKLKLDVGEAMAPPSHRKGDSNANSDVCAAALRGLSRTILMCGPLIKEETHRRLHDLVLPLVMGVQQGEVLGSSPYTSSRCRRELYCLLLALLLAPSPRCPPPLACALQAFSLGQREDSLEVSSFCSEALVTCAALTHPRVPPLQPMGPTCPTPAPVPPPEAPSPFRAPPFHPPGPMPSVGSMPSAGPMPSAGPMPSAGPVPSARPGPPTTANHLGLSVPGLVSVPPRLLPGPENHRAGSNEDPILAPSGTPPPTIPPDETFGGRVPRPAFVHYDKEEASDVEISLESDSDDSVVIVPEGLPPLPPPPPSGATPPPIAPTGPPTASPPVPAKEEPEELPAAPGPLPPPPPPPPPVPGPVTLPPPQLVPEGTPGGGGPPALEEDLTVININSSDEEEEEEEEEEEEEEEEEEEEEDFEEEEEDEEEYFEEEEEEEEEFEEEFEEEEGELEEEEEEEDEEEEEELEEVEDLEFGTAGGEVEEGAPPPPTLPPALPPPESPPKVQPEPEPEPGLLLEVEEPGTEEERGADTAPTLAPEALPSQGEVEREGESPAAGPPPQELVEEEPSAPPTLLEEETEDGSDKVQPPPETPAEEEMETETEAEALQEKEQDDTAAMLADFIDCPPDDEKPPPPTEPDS
UniProt Q13177, whole entry, looked up: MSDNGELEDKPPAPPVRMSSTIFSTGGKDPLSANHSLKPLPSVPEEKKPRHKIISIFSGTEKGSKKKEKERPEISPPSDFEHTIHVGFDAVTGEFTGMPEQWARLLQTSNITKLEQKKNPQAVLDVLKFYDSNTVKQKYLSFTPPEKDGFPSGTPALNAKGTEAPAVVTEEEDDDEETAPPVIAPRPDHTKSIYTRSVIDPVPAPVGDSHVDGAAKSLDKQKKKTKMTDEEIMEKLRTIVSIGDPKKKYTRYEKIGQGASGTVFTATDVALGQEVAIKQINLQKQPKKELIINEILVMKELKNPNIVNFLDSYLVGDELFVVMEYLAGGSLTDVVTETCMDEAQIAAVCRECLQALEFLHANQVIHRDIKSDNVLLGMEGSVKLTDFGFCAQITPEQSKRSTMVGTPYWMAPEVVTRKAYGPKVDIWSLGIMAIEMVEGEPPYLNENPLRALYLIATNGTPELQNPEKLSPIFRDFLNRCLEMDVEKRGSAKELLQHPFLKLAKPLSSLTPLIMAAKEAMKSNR
UniProt Q9BPZ3: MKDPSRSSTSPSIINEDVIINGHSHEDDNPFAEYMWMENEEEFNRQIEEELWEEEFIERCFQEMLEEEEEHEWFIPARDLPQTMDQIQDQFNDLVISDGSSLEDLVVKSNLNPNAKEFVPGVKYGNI
UniProt Q8NCN5: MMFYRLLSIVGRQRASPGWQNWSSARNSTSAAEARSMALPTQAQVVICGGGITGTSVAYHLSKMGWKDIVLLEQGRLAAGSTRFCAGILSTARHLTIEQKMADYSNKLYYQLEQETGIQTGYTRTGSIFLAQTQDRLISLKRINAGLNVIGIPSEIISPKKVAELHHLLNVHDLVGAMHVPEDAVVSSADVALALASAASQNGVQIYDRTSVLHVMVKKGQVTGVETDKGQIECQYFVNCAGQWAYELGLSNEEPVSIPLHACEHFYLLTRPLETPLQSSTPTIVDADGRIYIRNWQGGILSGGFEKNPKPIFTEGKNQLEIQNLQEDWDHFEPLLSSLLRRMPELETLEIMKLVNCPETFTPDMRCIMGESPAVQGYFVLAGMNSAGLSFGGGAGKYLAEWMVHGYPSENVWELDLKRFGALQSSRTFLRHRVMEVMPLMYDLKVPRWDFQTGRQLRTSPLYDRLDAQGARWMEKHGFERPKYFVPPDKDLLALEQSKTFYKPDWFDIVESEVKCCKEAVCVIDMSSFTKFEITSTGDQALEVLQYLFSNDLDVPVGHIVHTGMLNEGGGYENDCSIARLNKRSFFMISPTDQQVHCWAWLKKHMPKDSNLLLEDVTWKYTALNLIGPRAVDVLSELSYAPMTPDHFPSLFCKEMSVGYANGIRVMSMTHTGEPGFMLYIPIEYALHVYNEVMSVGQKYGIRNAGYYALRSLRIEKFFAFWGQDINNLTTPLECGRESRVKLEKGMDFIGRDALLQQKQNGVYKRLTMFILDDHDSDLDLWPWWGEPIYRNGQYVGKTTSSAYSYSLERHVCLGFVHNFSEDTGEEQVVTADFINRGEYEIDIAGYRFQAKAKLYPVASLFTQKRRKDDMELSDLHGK
UniProt Q15121, whole entry, looked up: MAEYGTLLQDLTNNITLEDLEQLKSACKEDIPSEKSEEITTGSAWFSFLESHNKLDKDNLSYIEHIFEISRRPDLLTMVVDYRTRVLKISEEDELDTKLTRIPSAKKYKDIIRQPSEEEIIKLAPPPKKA

log2 fold change, inactive:
PARP1 (UniProt P09874) 0.122, PBLD (UniProt P30039) 0.087, PDZD8 (UniProt Q8NEN9) 0.013, PDK1 (UniProt Q15118) 0.139, PEF1 (UniProt Q9UBV8) 0.122, PECAM1 (UniProt P16284) 0.028, PEBP1 (UniProt P30086) -0.011, PCNP (UniProt Q8WW12) -0.013, PDIA3 (UniProt P30101) -0.013, PAGR1 (UniProt Q9BTK6) -0.045, PDXDC1 (UniProt Q6P996) 0.261, PC (UniProt P11498) 0.009, PDLIM1 (UniProt O00151) -0.009, PDF (UniProt Q9HBH1) -0.043, PDIA6 isoform 2 (UniProt Q15084) 0.041, PDIA4 (UniProt P13667) -0.014, PCBP2 isoform 3 (UniProt Q15366) 0.013, PAK3 isoform 3 (UniProt O75914) 0.011, PEPD (UniProt P12955) 0.01, PER3 isoform 2 (UniProt P56645) -0.027, PCGF2 (UniProt P35227) 0.113, PELP1 (UniProt Q8IZL8) -0.085, PAK2 (UniProt Q13177) -0.008, PATL1 (UniProt Q86TB9) 0.014, PAIP2 (UniProt Q9BPZ3) 0.064, PARK7 (UniProt Q99497) 0.025, PDPR (UniProt Q8NCN5) 0.022, PEA15 isoform 2 (UniProt Q15121) 0.082
